Assay results reported in the supplement of paper PMC12889115.
This is one part of the list. Values are raw readings; no control value is given beside them.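 First-pass screen: polymyxin B was added at a level that permeabilizes the Salmonella outer membrane while sparing the inner membrane. DMSO wells, with and without polymyxin B, defined maximum growth. Because plates differed from one another, each plate's data were ranked separately and the compounds with the lowest OD600 were carried forward as hits.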

Tested on: Salmonella enterica serovar Typhimurium SL1344
Assay: bacterial growth OD600 after 18 h with compound and polymyxin B; higher = more bacterial growth (less inhibition)
Conditions: 50 µM, Mueller-Hinton broth

Row | SMILES | bacterial growth OD600 (polymyxin B 0.75 µg/mL) | bacterial growth OD600 (polymyxin B 1 µg/mL)
1 | CCC1CN(Cc2ccc3c(c2)OCCO3)Cc2cc(OC)ccc2O1 (stereo unspecified) | 0.696 | –
2 | Cc1nc2cc(OCc3cc(C(=O)N4CCN(c5ccccn5)CC4)no3)ccc2s1 | – | 0.008
3 | O=S(=O)(NC1CCCc2nc(-c3ccccc3)ncc21)c1ccsc1 (stereo unspecified) | 0.746 | –
4 | CCN(Cc1ccccc1)C(=O)c1coc(COc2ccc3c(c2)OCO3)n1 | – | 0.822
5 | COC(=O)[C@@H]1CCCN1C(=O)Cc1ccc(N2CCC(NC3Cc4ccccc4C3)CC2)cc1 | 0.939 | –
6 | O=C1OCCN1CCNc1ccc(-c2nc(Cc3ccc(F)cc3)no2)cn1 | – | 0.924
7 | Cc1csc(SCC(=O)N2CCc3c(cnc(C)c3CNC(=O)/C=C/c3cccs3)C2)n1 | 0.781 | –
8 | CCc1ccc(CN(C)C(=O)c2cc(COc3cncc(Cl)c3)on2)cc1 | – | 0.802
9 | O[C@@H]1CN(Cc2ccc(Cl)cc2)CC[C@H]1N1CCN(c2ccccn2)CC1 | 0.797 | –
10 | CCOC(=O)N1CCN(C(=O)c2cc(COc3cccc4cccnc34)on2)CC1 | – | 0.861
11 | O=C1CCC(CCC(=O)N2CCC(c3ccccc3Cl)C2)(Cc2cccs2)N1 (stereo unspecified) | 0.815 | –
12 | O=C(c1coc(COc2cccc(F)c2F)n1)N1CCCCCC1 | – | 0.678
13 | Cc1csc(SCC(=O)N2CCC(C(Cc3ccc(F)cc3F)N(C)C(=O)C3CC3)CC2)n1 (stereo unspecified) | 0.741 | –
14 | CCO[C@H]1[C@H](NC(=O)CC)c2ccccc2C12CCN(C(=O)c1cc3ccccc3oc1=O)CC2 | 0.789 | –
15 | COc1cccc(-c2cnc(-c3ccncc3)nc2C2CCN(Cc3c(C)[nH]c4ccccc34)CC2)c1 | 0.695 | –
16 | O=C(NCC1COCCO1)C1(N2CCCCC2)Cc2ccccc2C1 (stereo unspecified) | 0.725 | –
17 | O=C(NCc1ccon1)c1coc(COc2cccc(F)c2)n1 | – | 1.09
18 | Cc1cc(F)ccc1NC(=O)CCC1CCCN(Cc2cccc3c2OCO3)C1 (stereo unspecified) | – | 0.839
19 | O=C(NC1CCCN(CC2CCCCC2)C1)c1cccs1 (stereo unspecified) | – | 0.916
20 | COc1cc(CN2CCN(Cc3cn(C)nc3C)CC2CCO)cc(OC)c1 (stereo unspecified) | – | 0.909
21 | CCc1csc(CNC(=O)c2ccc(N3CCSCC3)nc2)n1 | 0.811 | –

Quoted from above, entries 14–17
Row | SMILES | bacterial growth OD600 (polymyxin B 0.75 µg/mL) | bacterial growth OD600 (polymyxin B 1 µg/mL)
14 | CCO[C@H]1[C@H](NC(=O)CC)c2ccccc2C12CCN(C(=O)c1cc3ccccc3oc1=O)CC2 | 0.789 | –
15 | COc1cccc(-c2cnc(-c3ccncc3)nc2C2CCN(Cc3c(C)[nH]c4ccccc34)CC2)c1 | 0.695 | –
16 | O=C(NCC1COCCO1)C1(N2CCCCC2)Cc2ccccc2C1 (stereo unspecified) | 0.725 | –
17 | O=C(NCc1ccon1)c1coc(COc2cccc(F)c2)n1 | – | 1.09
